Results reported in US10166142B2, “Small molecule delivery with implantable therapeutic device” (ForSight Vision4, Inc., priority 2011, dated 2019).

Test: Release of dorzolamide suspension from therapeutic devices, Example A
Settings: 100 mg/mL suspension, measured for 120 days, all devices

For `CCN[C@H]1C[C@H](C)S(=O)(=O)c2sc(S(N)(=O)=O)cc21` [Dorzolamide, dorzolamide Hydrochloride], the “constant drug release rate” value was 17 µg/day.

Counter-ions that a name gives are not always drawn.
